# Test results published in PubChem BioAssay AID493014 (National Center for Advancing Translational Sciences (NCATS), 2011).
# The list shows a part of the results. These are further read-outs of the screen, such as a control signal, another cell line or another target. No call is given for them. The list favours compounds with an active or inconclusive main result. The note in brackets gives the kind of curve behind each potency; many fits are weak.
# Experiment: qHTS Assay to Find Inhibitors of Chronic Active B-Cell Receptor Signaling
# Conditions: ABC-DLBCL IkBa-CBG/CBR reporter, luminescence ratio (green luciferase fused to IkBa over red control in TMD8 lymphoma cells), 4 h; measured here: CBR red luminescence, cell number
# Procedure, shortened: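 Concentration-response series (up to 46 uM) were applied to TMD8 dual-reporter cells for 4 h at 37C with doxycycline. Green/red ratio, after filter-overlap correction, defined %Activity; red signal alone was normalised to basal cells and zero luminescence.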
row,SMILES,AC50
1,CCOc1ccc(NC(=O)CN(C)C(=O)CN2C(=O)C3CCCCC3C2=O)cc1OCC (stereo not given),"0.731 µM [rising, full curve]"
2,O=C(COC(=O)CCNS(=O)(=O)c1cccs1)Nc1cc(C(F)(F)F)ccc1Cl,"23.1 µM [rising, partial curve, poor fit]"
3,COc1ccc(C(=O)NC(C)c2nnc(SCC(=O)Nc3nc4ccccc4s3)n2C)cc1 (stereo not given),"15.8 µM [falling, single point]"
4,O=C(CSc1ccccc1)N1CCCC(N2CCN(c3ccccc3)CC2)C1 (stereo not given),"35.5 µM [falling, single point]"
5,CCNC(=O)COC(=O)/C=C/c1ccccc1[N+](=O)[O-],"16.4 µM [falling, single point]"
6,COc1ccc(-n2nnnc2SCC(=O)N(C)C2CCS(=O)(=O)C2)cc1 (stereo not given),"1.03 µM [rising, full curve, poor fit]"
7,CC(=O)Nc1ccc(OCCC[n+]2ccccc2)cc1,"10 µM [rising, partial curve, poor fit]"
8,O=C(NNc1cc(Cl)ccc1Cl)C1CCC1,"3.98 µM [rising, full curve, poor fit]"
9,O=C(O)c1ccc(Nc2nc(-c3cccnc3)cs2)cc1O,"7.08 µM [falling, partial curve]"
10,O=C(NC1CCCC1)c1cc(-c2cccc(Cl)c2)on1,"12.6 µM [falling, partial curve]"
11,CC(=O)c1ccc(N2CCN(S(=O)(=O)c3cccc4nsnc34)CC2)cc1,"35.5 µM [rising, single point]"
12,COc1ccc(OC)c(Cc2nnc(CCC(=O)NC3C4CC5CC(C4)CC3C5)o2)c1 (stereo not given),"3.55 µM [falling, partial curve, poor fit]"
13,Nc1c(-c2ccccc2)n[nH]c1-c1ccccc1,"4.61 µM [falling, full curve]"
14,CN1N=C(C(=O)N2CCc3c([nH]c4ccccc34)C2c2ccccc2Cl)CCC1=O (stereo not given),"0.178 µM [falling, full curve, poor fit]"
15,O=C(N/N=C/c1c[nH]c2ccccc12)c1ccccc1O,"5.62 µM [falling, partial curve, poor fit]"
16,Cc1cccn2cc(CCNC(=O)c3cccs3)nc12,"12.6 µM [falling, partial curve]"
17,Cc1cc(C)c2c(N)c(C(=O)c3ccc(Cl)cc3)sc2n1,"0.0651 µM [rising, full curve]"
18,O=C(c1cc(-c2cccc3ccccc23)nc2ccccc12)N1CCN(CCO)CC1,"0.259 µM [rising, partial curve, poor fit]"
19,CCCOC(=O)C1=C(C)N(C)C(=O)NC1c1cc2c(cc1Br)OCO2 (stereo not given),"20 µM [falling, single point]"
20,N#CC1=C(SCC(=O)c2ccc(Cl)cc2)NC2=C(C(=O)CCC2)C1c1ccco1 (stereo not given),"22.4 µM [falling, single point]"

# Of the compounds above, these contain an aryl thioether with sulfur outside any ring.
row,SMILES,AC50
3,COc1ccc(C(=O)NC(C)c2nnc(SCC(=O)Nc3nc4ccccc4s3)n2C)cc1 (stereo not given),"15.8 µM [falling, single point]"
4,O=C(CSc1ccccc1)N1CCCC(N2CCN(c3ccccc3)CC2)C1 (stereo not given),"35.5 µM [falling, single point]"
6,COc1ccc(-n2nnnc2SCC(=O)N(C)C2CCS(=O)(=O)C2)cc1 (stereo not given),"1.03 µM [rising, full curve, poor fit]"

# (cont.)

row,SMILES,AC50
1,O=c1nccc(SCc2ccc(Cl)cc2Cl)[nH]1,"5.62 µM [falling, single point]"
2,CCC1CCCCN1C(=O)CCc1nnc(Cc2cc(OC)ccc2OC)o1 (stereo not given),"7.08 µM [rising, full curve, poor fit]"
3,CCOC(=O)c1cccc(N/C=C/C(=O)c2ccc(OC)c(OC)c2)c1,"35.5 µM [falling, single point]"
4,CC(C)Sc1nc2ccccc2n1CC(=O)O,"7.94 µM [rising, partial curve, poor fit]"
5,CC(=O)Nc1nc2c(C)cc(NC(=O)C3CCCCC3)cc2s1,"3.98 µM [rising, full curve, poor fit]"
6,CSc1nc(C)cc(OCC(=O)n2nc(C)cc2C)n1,"35.5 µM [rising, single point]"
7,O=C(NNc1ccccn1)c1ccccc1CC[N+](=O)[O-],"14.1 µM [rising, partial curve, poor fit]"
8,Cc1c(C(=O)c2ccc(Cl)c([N+](=O)[O-])c2)c2ccccn2c1CCC#N,"20.6 µM [falling, single point]"
9,CCC(C)NC(=O)c1cn(CC)c2cc(N3CCN(C(=O)c4ccco4)CC3)c(F)cc2c1=O (stereo not given),"7.08 µM [falling, partial curve, poor fit]"
10,COc1cc(C(CC(=O)N2CCN(c3ccccc3)CC2)c2c(OC)cc(OC)c3ccc(=O)oc23)cc(OC)c1OC (stereo not given),"0.398 µM [rising, partial curve, poor fit]"
11,C=CCOC(=O)CCC(=O)Nc1cccc2ccccc12,"35.5 µM [rising, single point]"
12,O=C(Nc1cccc(-c2cnc3ccccc3n2)c1)c1cccc(NC(=O)c2ccco2)c1,"10.3 µM [falling, partial curve, poor fit]"
13,CC1(C)CCC(=O)N2CC[C@H]3C[C@H](OC(=O)Nc4ccccc4)C[C@@H]1[C@H]32,"12.6 µM [falling, partial curve, poor fit]"
14,CC(C)(C)c1nc2cc(Cl)c([N+](=O)[O-])cc2o1,"3.98 µM [rising, full curve, poor fit]"
15,CCCN(CCC)C(=O)CC(c1ccccc1)c1ccc(C)cc1O (stereo not given),"23.1 µM [falling, single point]"
16,CC(C)NC(=O)Nc1ccc2c(c1)C(=O)N([C@H](C)CO)C[C@H](C)[C@@H](CN(C)C(=O)Nc1ccc3c(c1)OCO3)O2,"6.51 µM [rising, full curve, poor fit]"
17,COc1ccc(-c2nc3sc(CCNC(=O)c4cc(OC)c(OC)c(OC)c4)c(C)n3n2)cc1,"6.31 µM [rising, single point]"
18,CNc1nc(SCc2ccc(C)cc2)nc2c1CCCC2,"20 µM [falling, partial curve, poor fit]"
19,Cn1c(=O)c2c(nc(NCc3ccc4c(c3)OCO4)n2Cc2ccccc2F)n(C)c1=O,"3.98 µM [falling, single point]"
20,O=C(Nc1ccncc1)c1ccc(Cl)c(S(=O)(=O)N2CCCC2)c1,"16.4 µM [falling, partial curve, poor fit]"
